For eleven compounds, log results are on record in the supplement of paper PMC7024190.

This is one part of the list. Single values are uncertain here, since repeats match poorly.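 Human embryonic kidney cells were transiently transfected with a plasmid bearing a Renilla luciferase gene under the HSV-TK promoter. This first-round screen tests roughly ten thousand compounds for ones that increase reporter output.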

This assay deals with HEK 293FT. Put plainly: log relative Renilla luciferase luminescence (reporter expression vs reference, reference not stated) (log (base not stated)); higher = higher recombinant reporter expression. Conditions: 10 µM; time after transfection 48 h.
Consider `CC1OC1(C)C(=O)OC1c2cc3ccc(=O)oc3cc2OC(C)(C)C1OC(=O)C1(C)OC1C` (stereo unspecified) [Peuarenin], for which the log was -0.071.

In the case of `O=C(CN1CCCCC1)N1CCc2ccccc21` [Indocaine], the log was -0.034.

For `CCNCC(=O)N1c2ccccc2CCc2ccc(NC(=O)OCC)cc21`, the log is -0.248.

Turning to `O=C(O)c1ccccc1C(=O)Nc1ccc(S(=O)(=O)Nc2nccs2)cc1` [Phthalylsulfathiazole], the log is -0.0803.

Take `C[C@]12CCC(=O)C=C1CC[C@@H]1[C@@H]2[C@@H](O)C[C@@]2(C)[C@H]1CC[C@]2(O)C(=O)COC(=O)CCC(=O)O` [Hydrocortisone hemisuccinate]: the log is -0.218.

On to `Cc1cc(NS(=O)(=O)c2ccc(N)cc2)no1` [Sulfamethoxazole], for which the log was 0.0438.

On to `COc1cc2cc(Oc3ccc4ccc(=O)oc4c3)c(=O)oc2cc1O` [Daphnoretin], for which the log came out at 0.191.

Take `CCOc1nc2cccc(C(=O)OC(C)OC(=O)OC3CCCCC3)c2n1Cc1ccc(-c2ccccc2-c2nn[nH]n2)cc1` (stereo unspecified) [Candesartan Cilexetil]: the log was determined as 0.0633.

Take `O=C(O)c1cc(=O)c2ccccc2o1` [Chromocarb]: the log is -0.0238.

Regarding `COc1ccc2[nH]cc(C3CCCN(C(C)=O)C3)c2c1` (stereo unspecified), the log was -0.0321.

For the compound `O=C1c2ccccc2C(=O)C1c1cccc2ccccc12` [Naphthylin], the log came out at 0.0427.
